For five molecules, binding results are on record in paper PMC11633749, “Identification of the Wnt signal peptide that directs secretion on extracellular vesicles” (Science Advances, 2024).

The chains behind the UniProt entries cited, without tags or fusion partners.
UniProt P53621: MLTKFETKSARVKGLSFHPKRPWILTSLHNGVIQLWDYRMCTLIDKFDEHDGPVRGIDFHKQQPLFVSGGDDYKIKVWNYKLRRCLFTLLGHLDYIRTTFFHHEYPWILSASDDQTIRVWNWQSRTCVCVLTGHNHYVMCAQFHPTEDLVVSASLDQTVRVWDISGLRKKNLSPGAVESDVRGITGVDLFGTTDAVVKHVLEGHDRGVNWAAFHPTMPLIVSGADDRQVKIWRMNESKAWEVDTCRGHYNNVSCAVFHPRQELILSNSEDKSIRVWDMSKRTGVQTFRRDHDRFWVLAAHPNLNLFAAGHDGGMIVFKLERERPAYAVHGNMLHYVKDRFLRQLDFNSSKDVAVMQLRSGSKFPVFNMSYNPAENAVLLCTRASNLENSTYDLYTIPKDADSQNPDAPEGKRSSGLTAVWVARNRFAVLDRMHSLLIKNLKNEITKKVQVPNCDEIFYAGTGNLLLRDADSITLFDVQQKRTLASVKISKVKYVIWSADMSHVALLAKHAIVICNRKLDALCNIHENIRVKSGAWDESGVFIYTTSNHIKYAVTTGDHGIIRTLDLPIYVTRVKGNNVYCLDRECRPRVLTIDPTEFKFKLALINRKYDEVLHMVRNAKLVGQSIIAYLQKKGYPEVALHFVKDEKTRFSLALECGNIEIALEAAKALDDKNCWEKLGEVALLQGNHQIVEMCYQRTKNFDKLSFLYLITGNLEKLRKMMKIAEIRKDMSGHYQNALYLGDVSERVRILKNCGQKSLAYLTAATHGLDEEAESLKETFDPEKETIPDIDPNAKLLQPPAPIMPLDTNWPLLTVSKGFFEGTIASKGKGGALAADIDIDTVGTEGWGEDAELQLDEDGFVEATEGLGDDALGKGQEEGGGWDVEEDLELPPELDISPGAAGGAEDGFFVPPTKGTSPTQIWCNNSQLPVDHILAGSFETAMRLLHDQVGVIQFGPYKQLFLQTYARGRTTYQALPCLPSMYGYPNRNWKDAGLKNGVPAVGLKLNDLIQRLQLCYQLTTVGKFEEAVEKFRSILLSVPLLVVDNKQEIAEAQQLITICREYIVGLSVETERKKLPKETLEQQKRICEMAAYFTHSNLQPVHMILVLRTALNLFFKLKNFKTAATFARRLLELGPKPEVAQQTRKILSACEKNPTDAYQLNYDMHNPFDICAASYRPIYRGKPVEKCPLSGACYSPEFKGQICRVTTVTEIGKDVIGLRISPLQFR

No constants are given. Whether binding was seen depends on the method and setting. Binding seen in cells or lysates may run through a third protein. A yes stands for co-enrichment or nearness to the bait. Other partners may have been found. For some of these results: No binding means not detected with the bait. Sequences can lack the tags named with a protein.

For assay [1], the target named is T1, full-length Wnt7a-HA (Wnt7a-FL) (human) (UniProt O00755).
T1 sequence: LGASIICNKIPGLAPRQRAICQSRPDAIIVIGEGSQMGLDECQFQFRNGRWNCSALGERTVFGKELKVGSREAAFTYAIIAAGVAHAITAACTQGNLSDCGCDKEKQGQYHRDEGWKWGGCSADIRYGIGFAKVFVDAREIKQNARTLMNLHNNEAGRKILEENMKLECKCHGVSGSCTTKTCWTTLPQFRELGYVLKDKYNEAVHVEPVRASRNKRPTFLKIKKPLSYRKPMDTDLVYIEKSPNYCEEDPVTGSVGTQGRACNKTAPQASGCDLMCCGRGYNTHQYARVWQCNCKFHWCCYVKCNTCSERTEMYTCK
In words: affinity purification with mass spectrometry; anti-HA immunoprecipitates from lysed EVs of Wnt7a-HA-expressing HEK293T cells; mass spectrometry.

Assay [2] deals with T2, myc-tagged EBP-BirA (human).
T2 sequence: PVRASRNKRPTFLKIKKP
Nature of the assay: proximity labelling; BioID in stable mouse primary myoblasts expressing BioID2 fusions; 50 μM biotin 18 hours; streptavidin beads; mass spectrometry; enrichment against BirA alone.

Another assay has as its target T3, myc-tagged Wnt7a-BirA (UniProt O00755).
T3 sequence: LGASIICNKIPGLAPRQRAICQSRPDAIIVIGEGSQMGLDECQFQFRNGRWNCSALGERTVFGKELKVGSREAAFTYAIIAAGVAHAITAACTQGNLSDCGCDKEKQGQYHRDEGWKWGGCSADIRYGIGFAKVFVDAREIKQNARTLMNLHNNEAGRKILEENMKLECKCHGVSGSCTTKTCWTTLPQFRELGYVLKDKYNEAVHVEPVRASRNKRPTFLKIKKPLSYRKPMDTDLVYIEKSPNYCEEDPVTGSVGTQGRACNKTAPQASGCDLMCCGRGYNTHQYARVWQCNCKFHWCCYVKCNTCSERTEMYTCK
Described as above.

As to “COPA (coatomer protein), human (from UniProt P53621 1-1224)”, the binding result in assay [1] is listed as “binds”.

B1: COPB2 (coatomer protein), mouse (protein, UniProt O55029 1-905)
chain: MPLRLDIKRKLTARSDRVKSVDLHPTEPWMLASLYNGSVCVWNHETQTLVKTFEVCDLPVRAAKFVARKNWVVTGADDMQIRVFNYNTLERVHMFEAHSDYIRCIAVHPTQPFILTSSDDMLIKLWDWDKKWSCSQVFEGHTHYVMQIVINPKDNNQFASASLDRTIKVWQLGSSSPNFTLEGHEKGVNCIDYYSGGDKPYLISGADDRLVKIWDYQNKTCVQTLEGHAQNVSCASFHPELPIIITGSEDGTVRIWHSSTYRLESTLNYGMERVWCVASLRGSNNVALGYDEGSIIVKLGREEPAMSMDANGKIIWAKHSEVQQANLKAMGDTEIKDGERLPLAVKDMGSCEIYPQTIQHNPNGRFVVVCGDGEYIIYTAMALRNKSFGSAQEFAWAHDSSEYAIRESNSIVKIFKNFKEKKSFKPDFGAESIYGGFLLGVRSVNGLAFYDWENTELIRRIEIQPKHIFWSDSGELVCIATEESFFILKYLSEKVLAAQETHEGVTEDGIEDAFEVLGEIQEIVKTGLWVGDCFIYTSSVNRLNYYVGGEIVTIAHLDRTMYLLGYIPKDNRLYLGDKELNIVSYSLLVSVLEYQTAVMRRDFSMADKVLPTIPKEQRTRVAHFLEKQGFKQQALTVSTDPEHRFELALQLGELKIAYQLAVEAESEQKWKQLAELAISKCQFSLAQECLHHAQDYGGLLLLATASGNASMVNKLAEGAERDGKNNVAFMSYFLQGKLDACLELLIRTGRLPEAAFLARTYLPSQVSRVVKLWRENLSKVNQKAAESLADPTEYENLFPGLKEAFVVEEWVKETHADLWPAKQYPLVTPNEERNVMEEAKGFQPSRPTAQQEPDGKPASSPVIMASQTTHKEEKSLLELEVDLDNLELEDIDTTDINLDEDILDD
Turning to B1, the binding entry (in assay [2]; in the assay with myc-tagged Wnt7a-BirA) was “binds” each time.

B2: COPB2 (coatomer protein), human (protein, UniProt P35606 1-906)
chain: MPLRLDIKRKLTARSDRVKSVDLHPTEPWMLASLYNGSVCVWNHETQTLVKTFEVCDLPVRAAKFVARKNWVVTGADDMQIRVFNYNTLERVHMFEAHSDYIRCIAVHPTQPFILTSSDDMLIKLWDWDKKWSCSQVFEGHTHYVMQIVINPKDNNQFASASLDRTIKVWQLGSSSPNFTLEGHEKGVNCIDYYSGGDKPYLISGADDRLVKIWDYQNKTCVQTLEGHAQNVSCASFHPELPIIITGSEDGTVRIWHSSTYRLESTLNYGMERVWCVASLRGSNNVALGYDEGSIIVKLGREEPAMSMDANGKIIWAKHSEVQQANLKAMGDAEIKDGERLPLAVKDMGSCEIYPQTIQHNPNGRFVVVCGDGEYIIYTAMALRNKSFGSAQEFAWAHDSSEYAIRESNSIVKIFKNFKEKKSFKPDFGAESIYGGFLLGVRSVNGLAFYDWDNTELIRRIEIQPKHIFWSDSGELVCIATEESFFILKYLSEKVLAAQETHEGVTEDGIEDAFEVLGEIQEIVKTGLWVGDCFIYTSSVNRLNYYVGGEIVTIAHLDRTMYLLGYIPKDNRLYLGDKELNIISYSLLVSVLEYQTAVMRRDFSMADKVLPTIPKEQRTRVAHFLEKQGFKQQALTVSTDPEHRFELALQLGELKIAYQLAVEAESEQKWKQLAELAISKCQFGLAQECLHHAQDYGGLLLLATASGNANMVNKLAEGAERDGKNNVAFMSYFLQGKVDACLELLIRTGRLPEAAFLARTYLPSQVSRVVKLWRENLSKVNQKAAESLADPTEYENLFPGLKEAFVVEEWVKETHADLWPAKQYPLVTPNEERNVMEEGKDFQPSRSTAQQELDGKPASPTPVIVASHTANKEEKSLLELEVDLDNLELEDIDTTDINLDEDILDD
As for B2, the binding entry in assay [1] is “binds”.

B3: Reck (protein, UniProt Q9Z0J1 23-942)
chain: EVTGGLAPGSAGAVCCNHSKDNQMCRDVCEQIFSSKSESRLKHLLQRAPDYCPETMVEIWSCMNSSLPGVFKKSDGWVGLGCCELAIGLECRQACKQASSKNDISKVCRKEYENALFSCISRNEMGSVCCSYAGHHTNCREFCQAIFRTDSSPGPSQIKAVENYCASISPQLIHCVNNYTQSYPMRNPTDSLYCCDRAEDHACQNACKRILMSKKTEMEIVDGLIEGCKTQPLPQDPLWQCFLESSQSVHPGVTVHPPPSTGLDGAKLHCCSKANTSTCRELCTKLYSMSWGNTQSWQEFDRICEYNPVEVSMLTCLADVREPCQLGCTNLTYCTNFNNRPTELFRSCTAQSDQGAMSDMKLWEKGSIKMPFISIPVLDIKTCQPEMWKAVACSLQIKPCHSKSRGSIICKSDCVEILKKCGDQNKFPEEHTAESICEFLSPADDLESCIPLDTYLRPSALGNIIEEVTHPCNPNPCPANELCEVNRKGCPSADPCLPYSCVQGCKLGEASDFIVRQGTLIQVPSSAGEVGCYKICSCGQSGLLENCMEMHCIDLQKSCIVGGKRKSHGTSFTIDCNVCSCFAGNLVCSTRLCLSEHSSDDDRRTFTGLPCNCADQFVPVCAQNGRTYPSACIARCVGLQDHQFEFGPCISKNPCNPNLCPKSQRCVPKPQVCLTTFDKFGCSQYECVPRQLTCDQARDPVCDTDHMEHSNLCTLYQRGKSLSYRGPCQPFCRAKEPVCGHNGETYSSVCAAYSDRVAVDYYGPCQAVGVLSEYSAVAECAAVKCPSLSAIGCKPIIPPGACCPLCAGMLRVLFDKEKLDTIAKVTSKKPITVVEILQKVRMHVSVPQCDVFGYLSIESEIVILIIPVDHYPKALQIEACNKEAEKIESLINSDSPTLASHVPLSALIISQVQVSSSLPS
Consider B3, for which the binding result (in assay [2]; with myc-tagged Wnt7a-BirA) was “no binding” throughout.

B4: WLS (protein, UniProt Q6DID7 1-541)
chain: MAGAIIENMSTKKLCIVGGILLVFQIVAFLVGGLIAPAPTTAVPYTAIKCVDVRKNHHKTRWLAPWGPNKCDKIRDIEEAIPREIEANDIVFSVHIPLPSMEMSPWFQFMLFILQLDIAFKLNNQIRENAEISMDVSLGYRDDMFSEWTEMAHERVPRKLKCTFTSPKTPEHEGRYYNCDVLPFMEIGSVAHKYYLLNIRLPVNEKKKINVGIGEIKDIRLVGIHQNGGFTKVWFAMKTFLTPSIFIIMVWYWRRITMMSRPPVLLEKVIFALGISMTFINIPVEWFSIGFDWTWMLLFGDIRQGIFYAMLLSFWIIFCGEHMMDQHERNHIAGYWKQVGPIAVGSFCLFIFDMCERGVQLTNPFYSIWTTDVGTELAMAFIIVAGICLCLYFLFLCFMVFQVFRNISGKQSSLPAMSKVRRLHYEGLIFRFKFLMLITLACAAMTVIFFIVSQVSEGHWKWGGVTVQVSSAFFTGIYGMWNLYVFALMFLYAPSHKNYGEDQSNGDLGVHSGEELQLTTTITHVDGPTEIYKLTRKEAQE
For B4, the binding result in the assay with myc-tagged Wnt7a-BirA is “no binding”.
